Results taken from the supplement of paper PMC10338343.
± gives the standard deviation. The entries are a selection whose mix differs from that of the whole data set. Many entries were measured with a wide error. The list shows a part of the results.

Key:
[1] = test system: MILI (PIWIL2) piRISC loaded with L1MC piRNA (26 nt); assay: pre-steady-state target cleavage rate (min^-1); higher = faster piRNA-guided slicing of the target; conditions: guide: L1MC piRNA 5'p-UAACUAAAUACUAUGCAAGCUGUAGG
Method in brief: (§1)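 The pre-steady-state cleavage rate was obtained by Cleave-'n-Seq with a burst-and-steady-state fit. A transcribed, DNA-blocked target RNA library (0.1 nM) was mixed with 1 nM active affinity-purified piRISC carrying one synthetic guide, with or without 500 nM GTSF1 partner protein, in HEPES–potassium acetate buffer at 33 °C for 0–8 or 0–960 min. Uncleaved targets were sequenced and normalised to depth and to weakly complementary targets, with three trials pooled and k3 capped at 0.0001 min^-1.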

[2] = test system: MIWI (PIWIL1) piRISC loaded with L1MC piRNA (30 nt); assay: as above; conditions: guide: L1MC piRNA 5'p-UAACUAAAUACUAUGCAAGCUGUAGGUCCU
Method in brief: as §1

[3] = test system: EfPiwi piRISC loaded with L1MC piRNA (26 nt); assay: pre-steady-state target cleavage rate (min^-1); guide: L1MC piRNA 5'p-UAACUAAAUACUAUGCAAGCUGUAGG; MIWI and MILI are mouse PIWI proteins and EfPiwi is from a freshwater sponge; tags in brackets are library labels; higher = faster piRNA-guided slicing of the target
Method in brief: as §1

[4] = auxiliary factor: 500 nM mouse GTSF1
[5] = auxiliary factor: none (no GTSF1)
[6] = auxiliary factor: 500 nM Ephydatia muelleri Gtsf1
[7] = auxiliary factor: none (no Gtsf1)

Sequence	pre-steady-state target cleavage rate [1, 4]	pre-steady-state target cleavage rate [1, 5]	pre-steady-state target cleavage rate [2, 5]	pre-steady-state target cleavage rate [3, 6]	pre-steady-state target cleavage rate [3, 7]	pre-steady-state target cleavage rate [2, 4]
UCCUGGAUGUCGAAGCAUAGUGUUUAGUUA	0.0115 ± 0.0044	0.00454 ± 0.0019	0.0018 ± 0.004	0.000204 ± 0.03	0.000589 ± 0.015	–
UCCUGGAACAGCUUGCAUACAAUUUAGUUA	0.0027 ± 0.0046	0.00171 ± 0.004	0.00257 ± 0.0027	0.00126 ± 0.0032	0.000682 ± 0.013	–
UCCUGGAUGUCCUUCGUUAGUAUUUAGUUA	0.00219 ± 0.0059	0.0008 ± 0.0075	0.000729 ± 0.011	0.000405 ± 0.0081	< 0.0001	–
UCCUGGUACAGCUUGCAUAGUUUUUUCAAA	0.0153 ± 0.0075	0.0016 ± 0.005	0.000999 ± 0.006	0.000722 ± 0.011	0.000138 ± 0.067	–
UCCUGGAUGAGCUACCAUAGUAUUUAGUUA	0.101 ± 0.018	0.00301 ± 0.0025	0.000371 ± 0.0064	0.00141 ± 0.0042	0.000673 ± 0.012	–
UCCUCCUACAGCUUGCAUAGAUUUUUCAAA	0.0441 ± 0.013	0.00124 ± 0.005	0.000516 ± 0.0098	0.00124 ± 0.0037	0.000191 ± 0.017	–
UCCUGCUACAGCUUCCAUUGUAUUUAGUUA	0.157 ± 0.029	0.00322 ± 0.0022	0.00261 ± 0.0027	0.00266 ± 0.0018	0.000212 ± 0.031	–
UCCUGCUACAGCUUGCAUAGUAAUUACAAA	0.0901 ± 0.029	0.000322 ± 0.012	0.000594 ± 0.015	0.00259 ± 0.0018	0.000246 ± 0.021	–
UCCUGGAUCAGCUUGCAUAGAAUUUACAAA	0.00722 ± 0.0036	0.000653 ± 0.0079	0.00263 ± 0.0027	0.000793 ± 0.0035	0.000384 ± 0.015	–
UCCUGGAUCAGCUUGCAUAGAAAUUAGUUA	0.0245 ± 0.0096	0.00186 ± 0.0035	0.0026 ± 0.0029	0.000977 ± 0.0042	0.000365 ± 0.016	–
UCCUCCUACAGCUUGCAUACAUUUUAGUUA	0.00509 ± 0.0039	0.00189 ± 0.0027	0.000635 ± 0.0052	0.000531 ± 0.0077	0.000182 ± 0.021	–
UCCUGGAUGUCGUAUGCAUAGUAUUUAGUUA	0.0833 ± 0.012	0.00487 ± 0.0028	0.00121 ± 0.008	0.00476 ± 0.0027	0.000789 ± 0.0096	–
UCCUGGAUGUCGAAGCAUAGUAGUUAGUUA	0.00345 ± 0.0035	0.00138 ± 0.0042	0.000761 ± 0.007	0.00117 ± 0.0054	0.000439 ± 0.014	–
UCCUGGAUGUCGAAGCAUAGUAUUUAGAUA	0.00991 ± 0.0044	0.00147 ± 0.0033	0.00115 ± 0.0047	0.00115 ± 0.0053	< 0.0001	–
UCCUGGAUGUGCUUGCAUGAGUAUUUAGUUA	0.00229 ± 0.0066	0.00145 ± 0.0047	–	0.000275 ± 0.028	0.000449 ± 0.021	0.00179 ± 0.007
UCCUGGAUGUGCUUGCAUAGUAUAUACUUA	0.0036 ± 0.0047	0.000837 ± 0.0077	0.00231 ± 0.0038	0.000307 ± 0.019	0.000501 ± 0.013	–
UCCUGCUAGUCCUUGCAUAGUAUUUACAAA	0.0056 ± 0.004	0.00051 ± 0.011	0.00106 ± 0.0047	0.00246 ± 0.0038	0.000286 ± 0.018	–
UCCUGGAUGUCGAAGCAUAGUUUAUAGUUA	0.000969 ± 0.0094	0.000777 ± 0.0075	0.000451 ± 0.015	0.000455 ± 0.013	0.000151 ± 0.025	–
UCCUGGUACAGGAAGCAUAGUAUUUAGUUA	0.223 ± 0.025	0.00538 ± 0.0026	0.00172 ± 0.0029	0.00248 ± 0.0023	0.000383 ± 0.018	–
UCCUGGAACAGCUUGCAUAGUAUUUUCAAA	0.0774 ± 0.018	0.000954 ± 0.005	0.00203 ± 0.0035	0.00233 ± 0.0023	0.000301 ± 0.019	–

Random excerpt: 2 records from the list, in no set order.
Sequence	pre-steady-state target cleavage rate [1, 4]	pre-steady-state target cleavage rate [1, 5]	pre-steady-state target cleavage rate [2, 5]	pre-steady-state target cleavage rate [3, 6]	pre-steady-state target cleavage rate [3, 7]	pre-steady-state target cleavage rate [2, 4]
UCCUCCUACAGCUUGCAUACAUUUUAGUUA	0.00509 ± 0.0039	0.00189 ± 0.0027	0.000635 ± 0.0052	0.000531 ± 0.0077	0.000182 ± 0.021	–
UCCUGGAUGAGCUACCAUAGUAUUUAGUUA	0.101 ± 0.018	0.00301 ± 0.0025	0.000371 ± 0.0064	0.00141 ± 0.0042	0.000673 ± 0.012	–

(list continues)

Sequence	pre-steady-state target cleavage rate [1, 4]	pre-steady-state target cleavage rate [1, 5]	pre-steady-state target cleavage rate [2, 5]	pre-steady-state target cleavage rate [3, 6]	pre-steady-state target cleavage rate [3, 7]	pre-steady-state target cleavage rate [2, 4]
UCCUCCUACAGCUUGCUAAGUAUUUACAAA	0.0519 ± 0.013	0.00113 ± 0.0049	0.000447 ± 0.0091	0.00134 ± 0.0059	0.00047 ± 0.0095	–
UCCUGGAACAGCUUGCAUAGAUUUUACAAA	0.00713 ± 0.0045	0.000556 ± 0.0076	0.000592 ± 0.0069	0.00312 ± 0.0047	0.000304 ± 0.019	–
UCCUGGAUCAGCUUGCAUAGAAUUUUCAAA	0.00426 ± 0.0044	0.000732 ± 0.008	0.00158 ± 0.0037	0.00068 ± 0.0048	0.000241 ± 0.032	–
UCCUGGAUGUCGAUGCAAGUAUUUAGUUA	0.00124 ± 0.006	0.000913 ± 0.0053	0.00178 ± 0.0048	0.000747 ± 0.0084	< 0.0001	–
UCCUGGAUGUCCUUGCAUAGCUAUUUAGUUA	0.00371 ± 0.0041	0.00105 ± 0.0062	0.00196 ± 0.0042	0.000231 ± 0.012	0.000131 ± 0.05	–
UCCUGGAUCAGCUUGCAUAGUAAAUUCAAA	0.0136 ± 0.0055	0.000896 ± 0.0067	0.000313 ± 0.0074	0.000708 ± 0.0046	0.000313 ± 0.018	–
UCCUGGAUGUCGAUGCGAUAGUAUUUAGUUA	0.00186 ± 0.0048	0.000721 ± 0.0066	0.000513 ± 0.0093	0.00144 ± 0.0043	0.000108 ± 0.028	–
UCCUCCUACAGCUUGCAUAGUAAAUACAAA	0.0608 ± 0.018	0.000939 ± 0.006	0.000542 ± 0.014	0.00363 ± 0.003	0.00053 ± 0.018	–
UCCUGGAACAGGAUGCAUAGUAUUUACAAA	0.0486 ± 0.017	0.000307 ± 0.014	0.000445 ± 0.013	0.00226 ± 0.0018	0.000184 ± 0.032	–
UCCUGGUACAGCUUGCUAUGUAUUUAGUAA	0.00603 ± 0.0046	0.000973 ± 0.0079	0.00245 ± 0.0026	0.00136 ± 0.0062	0.000356 ± 0.018	–
UCCUGGAAGUCCUUGCAUAGUAUUUUCAAA	0.0197 ± 0.0079	0.000586 ± 0.0086	0.000652 ± 0.009	0.000448 ± 0.0075	0.000157 ± 0.037	–
UCCUGGAUGUGCAUGCUUAGUAUUUAGUUA	0.0349 ± 0.011	0.0103 ± 0.0032	0.00233 ± 0.0033	0.000684 ± 0.0063	0.000524 ± 0.018	–
UCCUCCUACAGCUUGCAAUCUAUUUACAAA	0.0157 ± 0.0069	0.000177 ± 0.015	0.000257 ± 0.014	0.000611 ± 0.007	0.000216 ± 0.027	–
UCCUGGAUGUCGUUGCAAAGUAAUUAGUUA	0.00144 ± 0.0073	0.000922 ± 0.0072	0.000162 ± 0.019	0.00126 ± 0.009	0.000494 ± 0.016	–
UCCUGGUACAGCUACGAUAGUAUUUAGUAA	0.183 ± 0.034	0.00154 ± 0.0039	0.00102 ± 0.0058	0.00163 ± 0.0055	0.00038 ± 0.021	–
UCCUGGAUGUCCUUGCAUAGUAUAUAGAUA	0.0132 ± 0.0063	0.00147 ± 0.0049	0.00135 ± 0.006	0.00136 ± 0.0049	0.000115 ± 0.073	–
UCCUGGAUCAGCUUGCAUAGUUUUUACAAA	0.012 ± 0.0052	0.00102 ± 0.0046	0.00214 ± 0.0031	0.00288 ± 0.0037	0.000242 ± 0.035	–
UCCUCCUACAGCUUGCAUAGAUUUUAGAAA	0.0147 ± 0.0053	0.000962 ± 0.0045	0.000378 ± 0.0074	0.00312 ± 0.0024	0.00037 ± 0.0099	–
UCCUGGUACAGCUUGCAUAGUAUUAUCUAA	0.0327 ± 0.012	0.00122 ± 0.0054	0.00114 ± 0.004	0.00312 ± 0.0027	0.000492 ± 0.014	–
